Values from PubChem BioAssay AID1224828 (NIAID, 2016).
The whole screen tested about 17,000 reagents; below is a random part of them. In the full data, 762 (4.5%) were called active. 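Active calls include both raised and lowered p65 entry, mostly lowered; wells with fewer than 50 cells lack a z-score.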 The raw values are shown without normalisation. The numbers tell different reagents against one gene apart.

Aim: 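Find genes required for NF-kappaB p65 moving into the nucleus after LPS in mouse macrophages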 (primary screen)
System: mouse RAW264.7 G9 macrophage reporter cells (GFP-p65, Tnf promoter-mCherry)
Knock-down reagent: siRNA pool against mouse genes, 100 nM
Time to read-out: 2 days siRNA transfection, then 40 min LPS before fixation
Conditions: LPS (Salmonella minnesota R595) at 10 ng/ml
Measurement: 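Imaged p65 nuclear translocation ratio, normalised to the plate median, converted to robust z-scores and averaged across two replicates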
Scale: p65 translocation robust z-score: higher = more nuclear NF-kappaB p65 after LPS than the plate median; nuclear/cytoplasmic p65 ratio: higher = more nuclear NF-kappaB p65
Call rule: 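Called active when z exceeds 3.3 or falls under -1.56 (median of Tlr4 controls), giving activity score of at least 50; no calls for control wells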
Meaning of the calls: active = hit (p65 shift raised or lowered); inactive = no clear change

The opening 2 records, to show the layout:
Nudcd3
- p65 translocation robust z-score: 0.36
- nuclear/cytoplasmic p65 ratio, rep 1: 1.67
- nuclear/cytoplasmic p65 ratio, rep 2: 1.86
- low cell count flag: enough cells to score
- activity call: inactive

Fcgrt
- p65 translocation robust z-score: 1.38
- nuclear/cytoplasmic p65 ratio, rep 1: 1.7
- nuclear/cytoplasmic p65 ratio, rep 2: 1.5
- low cell count flag: enough cells to score
- activity call: inactive

Main list, repeating the preview:
Nudcd3
- p65 translocation robust z-score: 0.36
- nuclear/cytoplasmic p65 ratio, rep 1: 1.67
- nuclear/cytoplasmic p65 ratio, rep 2: 1.86
- low cell count flag: enough cells to score
- activity call: inactive

Fcgrt
- p65 translocation robust z-score: 1.38
- nuclear/cytoplasmic p65 ratio, rep 1: 1.7
- nuclear/cytoplasmic p65 ratio, rep 2: 1.5
- low cell count flag: enough cells to score
- activity call: inactive

Gata5
- p65 translocation robust z-score: -1.68
- nuclear/cytoplasmic p65 ratio, rep 1: 1.21
- nuclear/cytoplasmic p65 ratio, rep 2: 1.18
- low cell count flag: enough cells to score
- activity call: active

Ppid
- p65 translocation robust z-score: 0.7
- nuclear/cytoplasmic p65 ratio, rep 1: 1.63
- nuclear/cytoplasmic p65 ratio, rep 2: 1.47
- low cell count flag: enough cells to score
- activity call: inactive

Exph5
- p65 translocation robust z-score: 1.12
- nuclear/cytoplasmic p65 ratio, rep 1: 1.61
- nuclear/cytoplasmic p65 ratio, rep 2: 1.34
- low cell count flag: enough cells to score
- activity call: inactive

Proser1
- p65 translocation robust z-score: 2.25
- nuclear/cytoplasmic p65 ratio, rep 1: 1.59
- nuclear/cytoplasmic p65 ratio, rep 2: 1.87
- low cell count flag: enough cells to score
- activity call: inactive

Hsd3b4
- p65 translocation robust z-score: 1.06
- nuclear/cytoplasmic p65 ratio, rep 1: 1.8
- nuclear/cytoplasmic p65 ratio, rep 2: 1.49
- low cell count flag: enough cells to score
- activity call: inactive

Pi16
- p65 translocation robust z-score: 1.03
- nuclear/cytoplasmic p65 ratio, rep 1: 1.5
- nuclear/cytoplasmic p65 ratio, rep 2: 1.58
- low cell count flag: enough cells to score
- activity call: inactive

Dnmt3b
- p65 translocation robust z-score: 0.74
- nuclear/cytoplasmic p65 ratio, rep 1: 1.67
- nuclear/cytoplasmic p65 ratio, rep 2: 1.4
- low cell count flag: enough cells to score
- activity call: inactive

Zfp90
- p65 translocation robust z-score: 1.53
- nuclear/cytoplasmic p65 ratio, rep 1: 1.62
- nuclear/cytoplasmic p65 ratio, rep 2: 1.42
- low cell count flag: enough cells to score
- activity call: inactive

Ewsr1
- p65 translocation robust z-score: 2.19
- nuclear/cytoplasmic p65 ratio, rep 1: 1.85
- nuclear/cytoplasmic p65 ratio, rep 2: 1.57
- low cell count flag: enough cells to score
- activity call: inactive

Etnk1
- p65 translocation robust z-score: 1.53
- nuclear/cytoplasmic p65 ratio, rep 1: 1.84
- nuclear/cytoplasmic p65 ratio, rep 2: 1.65
- low cell count flag: enough cells to score
- activity call: inactive

Nkg7
- p65 translocation robust z-score: 1.89
- nuclear/cytoplasmic p65 ratio, rep 1: 1.73
- nuclear/cytoplasmic p65 ratio, rep 2: 1.63
- low cell count flag: enough cells to score
- activity call: inactive

Apex1
- p65 translocation robust z-score: 0.03
- nuclear/cytoplasmic p65 ratio, rep 1: 1.64
- nuclear/cytoplasmic p65 ratio, rep 2: 1.61
- low cell count flag: enough cells to score
- activity call: inactive

Ubtd1
- p65 translocation robust z-score: -0.2
- nuclear/cytoplasmic p65 ratio, rep 1: 1.62
- nuclear/cytoplasmic p65 ratio, rep 2: 1.73
- low cell count flag: enough cells to score
- activity call: inactive

C1s1
- p65 translocation robust z-score: 1.39
- nuclear/cytoplasmic p65 ratio, rep 1: 1.84
- nuclear/cytoplasmic p65 ratio, rep 2: 1.81
- low cell count flag: enough cells to score
- activity call: inactive

Bcl2
- p65 translocation robust z-score: -1.07
- nuclear/cytoplasmic p65 ratio, rep 1: 1.42
- nuclear/cytoplasmic p65 ratio, rep 2: 1.49
- low cell count flag: enough cells to score
- activity call: inactive

Mapk1ip1
- nuclear/cytoplasmic p65 ratio, rep 1: 1.48
- nuclear/cytoplasmic p65 ratio, rep 2: 1.25
- low cell count flag: fewer than 50 cells per well; well left out of scoring
- activity call: inactive

Nfic #1
- p65 translocation robust z-score: 0.68
- nuclear/cytoplasmic p65 ratio, rep 1: 1.68
- nuclear/cytoplasmic p65 ratio, rep 2: 1.5
- low cell count flag: enough cells to score
- activity call: inactive

Nfic #2
- p65 translocation robust z-score: 0.64
- nuclear/cytoplasmic p65 ratio, rep 1: 1.55
- nuclear/cytoplasmic p65 ratio, rep 2: 1.48
- low cell count flag: enough cells to score
- activity call: inactive

Bhlhe22
- p65 translocation robust z-score: -2.58
- nuclear/cytoplasmic p65 ratio, rep 1: 1.03
- nuclear/cytoplasmic p65 ratio, rep 2: 1.16
- low cell count flag: enough cells to score
- activity call: active

Mgst3
- p65 translocation robust z-score: -0.93
- nuclear/cytoplasmic p65 ratio, rep 1: 1.54
- nuclear/cytoplasmic p65 ratio, rep 2: 1.44
- low cell count flag: enough cells to score
- activity call: inactive

Hspbp1
- p65 translocation robust z-score: -0.53
- nuclear/cytoplasmic p65 ratio, rep 1: 1.5
- nuclear/cytoplasmic p65 ratio, rep 2: 1.56
- low cell count flag: enough cells to score
- activity call: inactive

Mapk12
- p65 translocation robust z-score: 0.76
- nuclear/cytoplasmic p65 ratio, rep 1: 1.73
- nuclear/cytoplasmic p65 ratio, rep 2: 1.47
- low cell count flag: enough cells to score
- activity call: inactive

Phf5a
- p65 translocation robust z-score: 1.92
- nuclear/cytoplasmic p65 ratio, rep 1: 1.69
- nuclear/cytoplasmic p65 ratio, rep 2: 1.46
- low cell count flag: enough cells to score
- activity call: inactive

Dhcr7
- p65 translocation robust z-score: 1.46
- nuclear/cytoplasmic p65 ratio, rep 1: 1.69
- nuclear/cytoplasmic p65 ratio, rep 2: 1.56
- low cell count flag: enough cells to score
- activity call: inactive

Myo1b
- p65 translocation robust z-score: -0.03
- nuclear/cytoplasmic p65 ratio, rep 1: 1.77
- nuclear/cytoplasmic p65 ratio, rep 2: 1.6
- low cell count flag: enough cells to score
- activity call: inactive
